For 38 compounds, AC50 results are on record in PubChem BioAssay AID493014 (National Center for Advancing Translational Sciences (NCATS), 2011).

The experiment is described as follows: qHTS Assay to Find Inhibitors of Chronic Active B-Cell Receptor Signaling. The note with it: ABC-DLBCL IkBa-CBG/CBR reporter, luminescence ratio (green luciferase fused to IkBa over red control in TMD8 lymphoma cells), 4 h. A digest of the protocol: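 TMD8 human ABC-DLBCL cells with doxycycline-inducible IκBα–green luciferase fusion and unfused red luciferase, in 0.5% FBS medium; compounds up to 46 uM, 4 h at 37C. Green/red luminescence ratio, filter-overlap corrected, fitted to concentration-response curves.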
Background: In qHTS, concentration-response curves come from the screen itself.

The mark [1] stands for this setting: measured here: CBR red luminescence, cell number.
Setting [2] is: measured here: IkBa-CBG green luminescence.

SMILES strings stand for the structures. The list shows a part of the results. These are further read-outs of the screen, such as a control signal, another cell line or another target. No call is given for them. Most of these compounds were active or inconclusive in the main read-out, so they are no random draw. Words in brackets tell the shape of the fitted curve; partial curves, single points and poor fits give uncertain potencies.

As usually defined, the AC50 is the midpoint of the concentration-response curve, whichever way the signal moves. Take `Cc1cccc(/C(N)=N/OC(=O)c2ccc(F)cc2)c1`: the AC50 under setting [1] was 4.61 µM [rising, single point].

For `CC(C)(C)c1ccc(C(=O)N2CCN(C(=O)C3CCCCC3)CC2)cc1`, the AC50 under setting [1] was 22.4 µM [rising, partial curve, poor fit].

For the compound `COc1cccc(CNC(=O)CCC2CCCN(C(=O)c3cccc(Cl)c3)C2)c1` (configuration not stated), under setting [1], the AC50 was 11.2 µM [rising, single point].

Turning to `COc1ccc(CNC(=O)CC2N=C3c4ccccc4N=C(SCC(=O)Nc4ccc(C(C)C)cc4)N3C2=O)cc1` (configuration not stated), under setting [1], the AC50 is 35.5 µM [falling, single point].

Take `O=C(CCl)N(Cc1ccccc1)c1ccccc1`: the half-maximal activity concentration (AC50) under setting [1] is 2.24 µM [falling, partial curve].

As to `O=C(NC(=O)c1ccccc1Cl)Nc1ccc(-c2cnco2)cc1`, the half-maximal activity concentration (AC50) under setting [1] was 1.58 µM [falling, full curve, poor fit].

On to `CCOc1ccccc1OCC(=O)NN=C1CCCC(=O)C1`, for which the AC50 is 29.1 µM [rising, single point] under setting [1] and 29.1 µM [falling, single point] under setting [2].

`COc1cc(S(=O)(=O)N2CCOCC2)ccc1NC(=O)COC(=O)C12CC3CC(CC(C3)C1)C2`: the AC50 under setting [1] is 1.46 µM [rising, full curve, poor fit].

Turning to `N=c1sccn1CC(=O)Nc1cc(Cl)ccc1Oc1ccccc1`, the half-maximal activity concentration (AC50) under setting [1] is 20.6 µM [falling, single point].

For the compound `O=C1N=C(N2CCCC2)S/C1=C\c1cccc(Br)c1`, under setting [1], the concentration at half-maximal activity (AC50) is 0.164 µM [rising, full curve, poor fit].

Take `COc1ccccc1-c1c(C)nn2c(C)c(C(C)=O)cnc12`: under setting [1], the half-maximal activity concentration (AC50) is 29.1 µM [rising, partial curve, poor fit].

Regarding `C/C(=N\NC(=O)c1cccc(N/N=C(\C)c2ccco2)c1)c1ccco1`, the half-maximal activity concentration (AC50) under setting [1] is 10 µM [falling, partial curve].

Consider `CC(=O)Nc1ccc(C2=NN(c3ccccc3)C(c3cccs3)C2)cc1` (configuration not stated), for which, under setting [1], the AC50 is 35.5 µM [falling, single point].

Regarding `CC1CCC/C=C/C(=O)c2c(O)cc(O)cc2CC(=O)O1` (configuration not stated), the half-maximal activity concentration (AC50) runs as follows: under setting [1], 1.58 µM [falling, full curve]; under setting [2], 35.5 µM [rising, partial curve, poor fit].

For `CCCN(CCC)S(=O)(=O)c1ccc(C(=O)Nc2nnc(-c3cc(OC)cc(OC)c3)o2)cc1`, the AC50 under setting [1] is 3.66 µM [falling, single point].

Regarding `COC(=O)c1[nH]c(C)c(/C(O)=C2\C(=O)C(=O)N(CCN3CCOCC3)C2c2cccnc2)c1C` (configuration not stated), the concentration at half-maximal activity (AC50) under setting [1] was 6.51 µM [rising, single point].

Take `Cc1cc(C)c(OCC(=O)OCC(=O)NC2CCCCCCC2)c(C)c1`: under setting [1], the half-maximal activity concentration (AC50) was 15.8 µM [rising, partial curve, poor fit].

For `Cc1nc(CSc2nsc(C)c2C#N)cs1`, under setting [1], the AC50 is 10 µM [falling, partial curve].

On to `Cc1ccc(-n2nc3c(N4CCC(C(=O)NCc5ccccc5C)CC4)nnc(C)c3c2C)cc1`, for which, under setting [1], the half-maximal activity concentration (AC50) is 1.12 µM [falling, partial curve, poor fit].

With `N#C/C(=N\Nc1ccc(S(=O)(=O)N2CCCCC2)cc1)C(N)=S`, under setting [2], the half-maximal activity concentration (AC50) is 23.1 µM [rising, partial curve, poor fit].

Regarding `O=C(NCC1CCCO1)c1cc(-c2ccncc2)nc2ccc(S(=O)(=O)N3CCOCC3)cc12` (configuration not stated), the concentration at half-maximal activity (AC50) under setting [1] was 6.51 µM [rising, single point].

Regarding `CC(C)CCOC(=O)C[N+](C)(C)CCOC1CC2CCC1(C)C2(C)C` (configuration not stated), the half-maximal activity concentration (AC50) under setting [1] was 12.6 µM [falling, partial curve].

With `CCN(CC)C(=O)C1CCCN(C/C=C/c2ccccc2)C1` (configuration not stated), the AC50 under setting [1] is 18.4 µM [falling, partial curve].

As for `COc1ccc(CC(=O)Nc2ccc(-c3nnc(-c4ccccc4)o3)cc2)cc1OC`, under setting [1], the concentration at half-maximal activity (AC50) was 0.013 µM [falling, full curve].

Take `CCOC(=O)C(Sc1ncc(C#N)c(N)n1)C(C)C` (configuration not stated): the concentration at half-maximal activity (AC50) under setting [1] is 2.31 µM [falling, partial curve, poor fit].

On to `CCn1ccc2c(OCC(=O)Nc3ccc(C)c(Cl)c3)cccc2c1=O`, for which, under setting [1], the concentration at half-maximal activity (AC50) is 11.2 µM [falling, partial curve, poor fit].

Consider `Cc1csc2sc(-c3ccnc(SCC(=O)NCc4ccccc4)n3)c(C)c12`, for which the AC50 under setting [1] was 17.8 µM [rising, partial curve, poor fit] and the half-maximal activity concentration (AC50) under setting [2] was 3.98 µM [falling, partial curve, poor fit].

With `CCc1ccc2[nH]c(=O)c(CN(Cc3ccccc3OC)Cc3nnnn3Cc3ccco3)cc2c1`, under setting [1], the half-maximal activity concentration (AC50) was 32.6 µM [falling, single point].

On to `COc1ccc(-n2ncc3c(NCc4cccs4)ncnc32)cc1`, for which the concentration at half-maximal activity (AC50) under setting [1] is 0.158 µM [rising, full curve, poor fit].

Consider `COc1ccc(C(CNC(=O)c2cccc(NC(=O)c3cccs3)c2)N2CCCC2)cc1` (configuration not stated), for which the AC50 under setting [1] is 25.9 µM [falling, partial curve, poor fit].

In the case of `COc1ccc(/C=C2\C(=O)NCC(=O)N2C)cc1`, under setting [1], the half-maximal activity concentration (AC50) is 0.708 µM [rising, full curve, poor fit].

With `Cc1cc(C)cc(NC(=O)CSc2nc3c(oc4ccccc43)c(=O)n2-c2ccccc2)c1`, under setting [1], the AC50 is 0.231 µM [rising, full curve, poor fit].

On to `CCN(CC)C(=O)c1sc2c(c1C)c(=O)n(CCc1ccccc1)c(=O)n2Cc1ccc(C)cc1`, for which the AC50 was 7.08 µM [falling, partial curve] under setting [1] and 10 µM [rising, partial curve, poor fit] under setting [2].

As to `CN(CCCC(=O)Nc1ccncc1)S(=O)(=O)c1ccc(Cl)cc1`, the concentration at half-maximal activity (AC50) under setting [1] is 1.41 µM [falling, partial curve, poor fit].

Regarding `N#CCCN(C(=O)COC(=O)CNC(=O)c1ccc(-c2ccccc2)cc1)c1ccc(F)cc1`, under setting [1], the concentration at half-maximal activity (AC50) was 29.1 µM [falling, partial curve, poor fit].

As for `COc1ccc(S(=O)(=O)Nc2ccccc2OC)cc1N=Nc1c(O)[nH]c(=S)[nH]c1=O`, the concentration at half-maximal activity (AC50) under setting [1] is 0.116 µM [rising, full curve, poor fit].

Regarding `C/C(=N\OCC(=O)NCC(F)(F)F)c1cc2ccccc2o1`, the AC50 under setting [1] was 29.1 µM [rising, single point].

Regarding `CC(=O)N(CC1CCCO1)C1(C(=O)NC2CCCC2)CCCCC1` (configuration not stated), the AC50 under setting [1] was 1.84 µM [falling, single point].
